# PubChem BioAssay AID1259424, University of Nebraska Medical Center | 2018
# Purpose: 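Find knockdowns that reproduce the expression shifts seen after KSR1 loss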 (primary screen)
# Cell system: human HCT116 colon cancer cells
# Reagents: siRNA pool against human genes, 50 nM
# Measurement: 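Log2 levels of six mRNAs (branched-DNA multiplex), adjusted by two reference genes and the non-targeting median, then scored against the average KSR1 knockdown pattern as Pearson r and euclidean distance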
# Scale: mean correlation with KSR1 profile and KSR1 correlation: higher = expression change more like KSR1 knockdown; mean distance from KSR1 profile: higher = expression change less like KSR1 knockdown
# Shown is an unselected part of about 14,000 deposited reagents. 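Higher correlation or smaller distance means closer resemblance to KSR1 loss; control wells, including KSR1 knockdowns, recur on many plates.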 Not stated in the record: the time to read-out.
gene,mean correlation with KSR1 profile,mean distance from KSR1 profile,"KSR1 correlation, replicate 1","KSR1 correlation, replicate 2","KSR1 correlation, replicate 3"
DPPA4 (developmental pluripotency associated 4),-0.476,2.02,-0.572,-0.456,-0.29
ALDH6A1 (aldehyde dehydrogenase 6 family member A1),-0.268,1.84,-0.362,0.168,-0.275
EGR3 (early growth response 3),-0.155,2.02,0.0425,-0.11,-0.169
GABRA3 (gamma-aminobutyric acid type A receptor subunit alpha3),0.055,1.68,0.13,-0.233,0.133
IQCC (IQ motif containing C),0.168,1.86,0.179,-0.0431,0.123
CRADD (CARD and death domain containing adaptor protein),-0.385,2.37,-0.361,-0.457,-0.255
FASTKD5 (FASTK mitochondrial RNA regulator 5),0.53,1.93,0.501,0.545,0.566
CXCR5 (C-X-C motif chemokine receptor 5),0.667,1.15,0.613,0.795,-0.121
ACAD8 (acyl-CoA dehydrogenase family member 8),-0.439,1.89,-0.237,-0.232,-0.646
DLEC1 (DLEC1 cilia and flagella associated protein),0.26,2.98,0.196,0.247,0.0643
ZNF768 (zinc finger protein 768),-0.0938,2.27,-0.0794,0.259,-0.354
"SAMSN1 (SAM domain, SH3 domain and nuclear localization signals 1)",-0.365,2.47,-0.327,-0.531,-0.197
AKAP4 (A-kinase anchoring protein 4),0.525,1.67,0.632,0.489,0.1
PALM (paralemmin),0.509,0.695,0.6,0.844,0.152
OR6A2 (olfactory receptor family 6 subfamily A member 2),0.675,1.62,0.672,0.879,0.525
AP5Z1 (adaptor related protein complex 5 subunit zeta 1),-0.235,1.67,-0.0635,-0.278,-0.269
NEFM (neurofilament medium chain),-0.149,0.842,0.343,0.264,-0.325
GNG10 (G protein subunit gamma 10),0.189,1.9,0.237,0.0323,0.183
PRSS27 (serine protease 27),0.893,0.885,0.32,0.815,0.877
MOV10 (Mov10 RNA helicase),0.0206,2.17,-0.147,0.0673,0.0564
BRWD1 (bromodomain and WD repeat domain containing 1),-0.53,2.11,-0.798,-0.55,-0.501
LYRM4 (LYR motif containing 4),-0.215,1.99,-0.108,-0.266,-0.437
SMC4 (structural maintenance of chromosomes 4),0.541,1.89,0.313,0.427,0.5
SEMA7A (semaphorin 7A (JohnMiltonHagen blood group)),0.923,2.81,0.859,0.895,0.855
EIF4E2 (eukaryotic translation initiation factor 4E family member 2),0.561,1.87,0.687,0.601,0.258
ADAM20 (ADAM metallopeptidase domain 20),-0.255,2.2,-0.204,-0.554,-0.0917
TLCD3A (TLC domain containing 3A),0.28,1.85,0.375,0.286,0.264
RBM4 (RNA binding motif protein 4),0.263,2.44,0.466,0.165,0.139
COPB2 (coat protein complex I subunit beta 2),-0.215,4.59,-0.215,-0.0763,-0.483
UBR1 (ubiquitin protein ligase E3 component n-recognin 1),0.139,1.74,-0.0875,0.147,-0.00264
UBE3A (ubiquitin protein ligase E3A),-0.213,1.47,0.121,-0.62,-0.489
DDX5 (DEAD-box helicase 5),-0.351,2.91,-0.379,-0.428,-0.481
HOXA6 (homeobox A6),-0.293,2.33,-0.474,-0.323,-0.264
DDX52 (DExD-box helicase 52),-0.76,2.14,-0.529,-0.795,-0.635
IFNA10 (interferon alpha 10),0.553,0.886,0.42,0.421,0.508
KIF7 (kinesin family member 7),-0.544,2.56,-0.545,-0.671,-0.637
MPIG6B (megakaryocyte and platelet inhibitory receptor G6b),0.278,1.93,-0.143,0.344,0.38
CLC (Charcot-Leyden crystal galectin),0.0941,2.19,0.233,-0.00139,-0.0064
"TLE2 (TLE family member 2, transcriptional corepressor)",0.412,1.47,0.309,0.578,-0.0561
LGALS8 (galectin 8),0.321,1.7,0.425,0.359,0.292
IRX6 (iroquois homeobox 6),0.184,4,0.305,0.306,-0.0935
CTPS2 (CTP synthase 2),-0.554,4.18,-0.495,-0.555,-0.596

10 of these entries in another layout:
UBR1 (ubiquitin protein ligase E3 component n-recognin 1): mean correlation with KSR1 profile = 0.139; mean distance from KSR1 profile = 1.74; KSR1 correlation, replicate 1 = -0.0875; KSR1 correlation, replicate 2 = 0.147; KSR1 correlation, replicate 3 = -0.00264
UBE3A (ubiquitin protein ligase E3A): mean correlation with KSR1 profile = -0.213; mean distance from KSR1 profile = 1.47; KSR1 correlation, replicate 1 = 0.121; KSR1 correlation, replicate 2 = -0.62; KSR1 correlation, replicate 3 = -0.489
DDX5 (DEAD-box helicase 5): mean correlation with KSR1 profile = -0.351; mean distance from KSR1 profile = 2.91; KSR1 correlation, replicate 1 = -0.379; KSR1 correlation, replicate 2 = -0.428; KSR1 correlation, replicate 3 = -0.481
HOXA6 (homeobox A6): mean correlation with KSR1 profile = -0.293; mean distance from KSR1 profile = 2.33; KSR1 correlation, replicate 1 = -0.474; KSR1 correlation, replicate 2 = -0.323; KSR1 correlation, replicate 3 = -0.264
DDX52 (DExD-box helicase 52): mean correlation with KSR1 profile = -0.76; mean distance from KSR1 profile = 2.14; KSR1 correlation, replicate 1 = -0.529; KSR1 correlation, replicate 2 = -0.795; KSR1 correlation, replicate 3 = -0.635
IFNA10 (interferon alpha 10): mean correlation with KSR1 profile = 0.553; mean distance from KSR1 profile = 0.886; KSR1 correlation, replicate 1 = 0.42; KSR1 correlation, replicate 2 = 0.421; KSR1 correlation, replicate 3 = 0.508
KIF7 (kinesin family member 7): mean correlation with KSR1 profile = -0.544; mean distance from KSR1 profile = 2.56; KSR1 correlation, replicate 1 = -0.545; KSR1 correlation, replicate 2 = -0.671; KSR1 correlation, replicate 3 = -0.637
MPIG6B (megakaryocyte and platelet inhibitory receptor G6b): mean correlation with KSR1 profile = 0.278; mean distance from KSR1 profile = 1.93; KSR1 correlation, replicate 1 = -0.143; KSR1 correlation, replicate 2 = 0.344; KSR1 correlation, replicate 3 = 0.38
CLC (Charcot-Leyden crystal galectin): mean correlation with KSR1 profile = 0.0941; mean distance from KSR1 profile = 2.19; KSR1 correlation, replicate 1 = 0.233; KSR1 correlation, replicate 2 = -0.00139; KSR1 correlation, replicate 3 = -0.0064
TLE2 (TLE family member 2, transcriptional corepressor): mean correlation with KSR1 profile = 0.412; mean distance from KSR1 profile = 1.47; KSR1 correlation, replicate 1 = 0.309; KSR1 correlation, replicate 2 = 0.578; KSR1 correlation, replicate 3 = -0.0561

More reagents:
gene,mean correlation with KSR1 profile,mean distance from KSR1 profile,"KSR1 correlation, replicate 1","KSR1 correlation, replicate 2","KSR1 correlation, replicate 3"
SULT1B1 (sulfotransferase family 1B member 1),-0.481,2.27,-0.529,-0.52,-0.252
INPP5J (inositol polyphosphate-5-phosphatase J),-0.226,2.74,-0.309,-0.344,-0.328
GPR42 (G protein-coupled receptor 42),0.039,3.23,-0.33,-0.659,0.87
SCGB2A2 (secretoglobin family 2A member 2),0.483,1.7,0.22,0.387,0.569
CDCA8 (cell division cycle associated 8),-0.395,3.51,-0.0864,-0.39,-0.469
KLRC1 (killer cell lectin like receptor C1),-0.254,2.39,-0.308,-0.476,-0.0969
NELFA (negative elongation factor complex member A),-0.883,2.16,-0.893,-0.834,-0.751
TCEAL1 (transcription elongation factor A like 1),-0.366,3.25,-0.0482,-0.119,-0.499
"RAB6B (RAB6B, member RAS oncogene family)",-0.806,2.01,-0.57,-0.813,-0.811
NFATC1 (nuclear factor of activated T cells 1),-0.972,2.02,-0.522,-0.792,-0.936
"MBTPS2 (membrane bound transcription factor peptidase, site 2)",-0.156,2.13,-0.038,-0.221,-0.402
KLHL27 (kelch like family member 27),-0.0718,1.17,-0.28,0.374,-0.335
STK3 (serine/threonine kinase 3),0.38,2.14,0.654,0.203,-0.0834
IQCH (IQ motif containing H),0.342,2.18,0.477,0.175,0.227
FCGR3B (Fc gamma receptor IIIb),-0.144,3.87,-0.145,-0.144,-0.185
ICAM5 (intercellular adhesion molecule 5),0.554,1.85,0.57,0.661,0.547
RPS15A (ribosomal protein S15a),0.0296,3.53,-0.0273,-0.0617,0.0673
ACAN (aggrecan),0.245,1.83,0.46,0.296,0.0957
RIPK1 (receptor interacting serine/threonine kinase 1),-0.242,2.25,-0.0023,-0.509,-0.456
PCIF1 (phosphorylated CTD interacting factor 1),-0.0842,2.75,0.0268,-0.0292,-0.188
DELEC1 (deleted in esophageal cancer 1),-0.497,1.56,-0.453,-0.539,-0.609
